Test results published in PMC3940891, “Transient Overexpression of adh8a Increases Allyl Alcohol Toxicity in Zebrafish Embryos” (PLoS ONE, 2014).

Columns and labels:
[1] = tested on: gfp, adh8a, adh8b mRNA injected zebrafish embryos; test: Zebrafish embryo test after microinjection of gfp, adh8a, adh8b or adh8a/b mRNA; format: in vivo, zebrafish (Danio rerio); details: exposure 8-56 h, crystallization dish, strain OBI
Experimental: (§1) The zebrafish embryo test was performed with few modifications according to a standard operation procedure and a static exposure setup without renewal of exposure solutions (ISO 15088, 2006). The following chemicals were used: Allyl alcohol (CAS 107-18-6, purity 99.8%, Sigma-Aldrich, Deisenhofen, Germany), acrolein (CAS 107-02-8, purity ≥99.0%, Sigma-Aldrich, Deisenhofen, Germany), 4-Nitrophenol (CAS 100-02-7, PESTANAL, analytical standard, Sigma-Aldrich, Deisenhofen, Germany), and ethanol (CAS 64-17-5, purity ≥ 99.5%, Carl Roth, Germany). Stock solutions were prepared for each experiment by adding the appropriate amount for the highest test concentration to the exposure media (294.0 mg/L CaCl2*2H2O, 123.3 mg/L MgSO4*7H2O, 64.7 mg/L NaHCO3, 5.7 mg/L KCl). The solutions were prepared one day before the experiment in 100 ml closed graduated flasks and were stirred over night for approximately 14 h. Lower concentrations were obtained by serial dilutions. Fertilized eggs (embryos at 4–32 cell stage) were transferred by a pipette to 24-well plates (1 embryo per well, 10 wells per exposure concentration, Cellstar Greiner Bio-One, Frickenhausen, Germany) or crystallization glass dishes (80 mm diameter, 10–20 embryos per vial and 30 ml of exposure medium), respectively. Exposures were performed in independent triplicates on different days for 48 h from 2-50 hpf (hours post fertilization), 24–72 hpf, and 72–120 hpf. For the 24–72 hpf exposure, part of the embryos were manually dechorionated using forceps. […] At either 2, 8, 24 or 72 hpf the medium was completely removed and replaced by exposure media containing different concentrations of allyl alcohol (2 ml per well or 30 ml per crystallization dish, respectively). The Henry's law coefficients of the test chemicals (allyl alcohol: 4.99*10^−6, ethanol: 5.62*10^−6, 4-nitrophenol: 4.15*10^−10, acrolein: 1.22*10^−4; atm*m^3/mol) indicate a weak volatility for ethanol, allyl alcohol and acrolein. Therefore, in order to reduce potential evaporation, 24-well plates were covered with an adhesive foil; crystallization dishes were covered with a household plastic wrap and watch glasses. For comparison of the LC50 at different stages and the effect of dechorionation, exposure was performed in 24-well plates. For gene expression analysis and microinjection experiments crystallization dishes were used for exposure.
(§2) After 48 h of exposure referring to 50, 72 or 120 hpf stages, the number of dead embryos was counted. Dead embryos were detected according to the criteria given in the ISO standard; i.e., either coagulation, missing heartbeat, failure to develop somites or a lack of detachment of the tail-bud from the yolk sac were considered as indicators of lethality.
Injection needles were pulled from borosilicate glass capillary tubes with filament (GC100F-10; Warner Instruments, LLC, Hamden, CT) using a Narishige micropipette puller (Tokyo, Japan). Embryos were injected with the Eppendorf FemtoJet (Hamburg, Germany) through the chorion into the yolk compartment at the one-cell stage.
Plasmids with either the cDNA sequence of adh8a or adh8b were purchased from ImaGenes (Berlin, Germany, clone numbers IRBOp991G0334D for adh8a and IRBOp991F02101D for adh8b). The GFP open reading frame was cloned into the pCS2p+ Vector. For synthesis of capped mRNAs, adh8 plasmids were cut with XhoI and pCS2P+GFP was cut with KpnI. 5′ capped mRNA was synthesized with the mMessage Machine SP6 Kit (Life Technologies/Ambion, Darmstadt, Germany) according to the manufacturer's instructions. Injected mRNA concentration was 20–50 ng/µl. Phenol red was added to the RNA samples before injection (0.1% final concentration) in order to allow tracking of successful injections.
The LC50 values ± asymmetric 95% confidence intervals were calculated using the software JMP (SAS, Cary, NC) using the Hill-slope equation for modeling of concentration-response curves: [drawing 1] […]

zebrafish embryos = test: Zebrafish embryo test (acute lethality, 48 h static exposure), non-injected embryos; format: in vivo, zebrafish (Danio rerio)
Experimental: as §1, §2
The LC50 values ± asymmetric 95% confidence intervals were calculated using the software JMP (SAS, Cary, NC) using the Hill-slope equation for modeling of concentration-response curves: [drawing 1]
Min and Max were set to 0 and 100%, respectively. x and y represented the nominal exposure concentration and the survival rate (percentage).

| Compound | Slope (Hill-slope concentration-response model) ([1]; adh8a mRNA injected) | Slope (Hill-slope concentration-response model) ([1]; adh8a/b mRNA injected) | Slope (Hill-slope concentration-response model) ([1]; adh8b mRNA injected) | Slope (Hill-slope concentration-response model) ([1]; gfp mRNA injected) | Slope (Hill-slope concentration-response model) (zebrafish embryos; exposure 2-50 hpf, with chorion, no mRNA injected, 24-well plates, strain OBI, n = 1) | Slope (Hill-slope concentration-response model) (zebrafish embryos; exposure 2-50 hpf, with chorion, no mRNA injected, 24-well plates, strain WIK) | Slope (Hill-slope concentration-response model) (zebrafish embryos; exposure 8-56 h, with chorion, non-injected control, crystallization dish, strain OBI) | Slope (Hill-slope concentration-response model) (zebrafish embryos; exposure 24-72 hpf, with chorion, no mRNA injected, 24-well plates, strain WIK) | Slope (Hill-slope concentration-response model) (zebrafish embryos; exposure 24-72 hpf, without chorion, no mRNA injected, 24-well plates, strain WIK) | Slope (Hill-slope concentration-response model) (zebrafish embryos; exposure 72-120 hpf, hatched, no mRNA injected, 24-well plates, strain WIK) |
| --- | --- | --- | --- | --- | --- | --- | --- | --- | --- | --- |
| O=[N+]([O-])c1ccc(O)cc1 [4-Nitrophenol] | 6.04 | 6.85 | 9.26 | 6.52 |  |  |  |  |  |  |
| C=CC=O [acrolein] |  |  |  |  | 6.9 |  |  |  |  |  |
| C=CCO [allyl alcohol, Allyl alcohol] | 1.91 | 3.24 | 2.78 | 5.51 |  | 3.94 | 5.72 | 3.31 | 4.19 | 6.52 |
| CCO [ethanol] | 20 | 10.1 | 4.9 | 12.8 |  |  |  |  |  |  |
